PMC8583962
Positions count from the first letter of the chain named. Results are given in words; binding and its absence hold for the method and conditions named. In cells and extracts the contact can be indirect. A yes stands for co-enrichment or nearness to the bait. Other partners may have been found. No binding means not detected with the bait. For some of these results: Where a sequence is shown, tags or fusion partners need not be part of it.

Amino acid sequences for entries named in this document (tags omitted).
UniProt Q9NWT6: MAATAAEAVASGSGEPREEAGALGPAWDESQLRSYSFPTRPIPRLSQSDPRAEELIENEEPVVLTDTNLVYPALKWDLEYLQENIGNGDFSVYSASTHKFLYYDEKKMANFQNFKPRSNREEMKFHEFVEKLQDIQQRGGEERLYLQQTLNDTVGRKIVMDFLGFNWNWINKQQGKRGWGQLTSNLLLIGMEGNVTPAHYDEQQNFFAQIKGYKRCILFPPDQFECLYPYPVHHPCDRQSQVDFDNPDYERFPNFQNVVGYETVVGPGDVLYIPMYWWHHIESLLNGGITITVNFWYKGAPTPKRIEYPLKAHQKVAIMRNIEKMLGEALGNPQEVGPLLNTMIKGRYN

Experiments:
Experiment in all cases: affinity purification with mass spectrometry; IP of NAA10-V5 or NAA15-V5 (anti-V5) or endogenous NAA15 from lysates of HEK293, HeLa or HAP1 cells on Dynabeads Protein G; IPH buffer (50 mM Tris-HCl pH 8.0, 150 mM NaCl, 5 mM EDTA, 0.5% NP-40), 4 °C, three washes; FASP or in-solution digestion; LC/MS, MaxQuant iBAQ
NAA15-V5 (human) = molecular target: T1, NAA15-V5 (human) (UniProt Q9BXJ9)
T1 sequence: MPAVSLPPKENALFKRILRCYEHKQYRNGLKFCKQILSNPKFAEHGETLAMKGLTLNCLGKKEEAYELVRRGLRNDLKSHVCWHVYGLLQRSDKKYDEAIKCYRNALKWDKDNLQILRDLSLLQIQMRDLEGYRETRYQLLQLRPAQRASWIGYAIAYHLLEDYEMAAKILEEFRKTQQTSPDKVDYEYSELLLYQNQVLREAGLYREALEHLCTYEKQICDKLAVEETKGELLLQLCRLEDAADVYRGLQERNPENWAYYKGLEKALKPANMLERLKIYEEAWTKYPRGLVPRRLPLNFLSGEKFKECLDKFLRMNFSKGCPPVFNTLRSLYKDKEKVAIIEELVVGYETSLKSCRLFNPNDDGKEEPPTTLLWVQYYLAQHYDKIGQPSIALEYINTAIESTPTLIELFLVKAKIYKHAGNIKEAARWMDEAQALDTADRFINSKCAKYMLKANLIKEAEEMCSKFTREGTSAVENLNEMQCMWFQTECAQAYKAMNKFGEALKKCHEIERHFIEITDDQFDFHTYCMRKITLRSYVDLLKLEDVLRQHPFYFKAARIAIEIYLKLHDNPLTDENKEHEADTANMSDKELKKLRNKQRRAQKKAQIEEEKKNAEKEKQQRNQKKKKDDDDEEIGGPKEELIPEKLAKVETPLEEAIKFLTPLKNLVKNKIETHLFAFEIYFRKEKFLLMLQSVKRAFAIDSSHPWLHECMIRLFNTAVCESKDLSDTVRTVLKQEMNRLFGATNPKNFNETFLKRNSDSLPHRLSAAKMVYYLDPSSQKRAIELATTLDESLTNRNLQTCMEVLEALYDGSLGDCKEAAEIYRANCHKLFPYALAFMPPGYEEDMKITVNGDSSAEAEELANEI

NAA15-L814P-V5 (human) = molecular target: T2, NAA15-L814P-V5 (human) (UniProt Q9BXJ9)
T2 sequence: T1 sequence with L814P

[1] = molecular target: T3, NAA15 (endogenous) (human (endogenous in HEK293, HeLa, HAP1)) (UniProt Q9BXJ9)
T3 sequence: T1 sequence

NAA15-T406Y-V5 (human) = molecular target: T4, NAA15-T406Y-V5 (human) (UniProt Q9BXJ9)
T4 sequence: T1 sequence with T406Y

- binding (NAA15-V5 (human)): no binding
- binding (NAA15-L814P-V5 (human)): no binding
- binding [1]: no binding
- binding (NAA15-T406Y-V5 (human)): no binding
Substance: factor inhibiting HIF-1α (FIH) (from UniProt Q9NWT6 1-349) (enzyme)
